Test results reported in PubChem BioAssay AID2685 (National Center for Advancing Translational Sciences (NCATS), 2010).
The other results are listed elsewhere or left out. Shown are side measurements of this screen, not its main read-out; they come without a call. Compounds called inactive in the main read-out are mostly missing here. Potencies come from curve fits of mixed quality, noted in brackets.

Assay: qHTS Assay for Lipid Storage Modulators in Drosophila S3 Cells;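 for cell number change: cells counted by Cell Tracker Red CMTPX staining in the red channel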
Conditions: BODIPY lipid droplet fluorescence, 18-24 h; for cell number change: measured here: cell count max response, cells fed with added oleic acid
How it was run: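 Drosophila S3 cells loaded with oleic acid (400 uM, as added) and compounds at several concentrations; lipid droplets imaged by 488-nm laser-scanning cytometry, 500–530 nm intensity and object ratio to cell channel. Percent activity normalized to 20 uM Triacsin C.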

[1] = measured here: lipid fluorescence (Fed channel) AC50, cells fed with added oleic acid
[2] = measured here: cell number channel AC50, cells fed with added oleic acid

| Compound | cell number change | AC50 [1] | AC50 [2] |
| --- | --- | --- | --- |
| COc1cccc(-c2nnc(NC(=O)c3ccc(S(=O)(=O)N4CCOCC4)cc3)o2)c1 | -4.32% | 2.59 µM [rising, full curve, poor fit] |  |
| CCCCc1nc(Cl)c(CO)n1Cc1ccc(-c2ccccc2-c2nn[nH]n2)cc1 | 15.5% |  |  |
| O=C1CN(C(=O)c2cc3ccccc3oc2=O)C(c2ccccc2)c2cc(F)ccc2N1 (centres undefined) | -0.929% | 0.58 µM [rising, single point] |  |
| CCCC(=O)Nc1ccc(NC(=O)Cc2ccccc2)cn1 | 38.6% |  | 8.2 µM [rising, single point] |
| Cc1ccc(-c2nn3c(C)nnc3c3ccccc23)cc1S(=O)(=O)NCCO | 1.29% |  |  |
| CCOC(=O)NC(=S)Nc1ccc(C(C)(C)C)cc1Br | -29.1% | 23.1 µM [falling, single point] |  |
| Cc1cc(C(=O)NCC(C)C)c2ccccc2n1 | 44.2% |  |  |
| CCOC(=O)c1[nH]c(C)c(C(=O)OCC(=O)N(Cc2ccccc2)C(C)C)c1C | 2.82% | 29.1 µM [falling, single point] |  |
| CC(=O)Nc1ccc(S(=O)(=O)NCC2CCC(C(=O)NCCCOC(C)C)CC2)cc1 (centres undefined) |  | 29.1 µM [rising, single point] |  |
| Cc1ccc(-n2sc3ccccc3c2=O)cc1S(=O)(=O)N1CCCCC1 | -208% |  | 23.1 µM [falling, single point] |
| O=C(CCc1ccccc1)NCc1ccc(F)cc1 | 24.2% | 29.1 µM [rising, single point] |  |
| O=C(O)CN(Cc1ccco1)S(=O)(=O)c1ccccc1 | -32.5% | 18.4 µM [falling, partial curve] | 29.1 µM [falling, single point] |
| CCCN1C(=O)c2cc(C(=O)NCc3cccs3)ccc2C1O (centres undefined) | -15.2% |  |  |
| COc1ccc(S(=O)(=O)NCCSc2ccc(C)cc2)cc1OC | -0.129% |  |  |
| CCCCn1c(N)c(N(CC(C)C)C(=O)C2=COCCO2)c(=O)[nH]c1=O | -0.58% | 1.84 µM [falling, single point] |  |
| COC(=O)C1=C(C)N(CCc2c[nH]c3ccccc23)C(=O)/C1=C\N(C)C |  | 1.46 µM [rising, full curve, poor fit] |  |
| O=C(Nc1ccc(-n2ccc(C(F)(F)F)n2)cc1)c1cccs1 | -14.9% | 29.1 µM [falling, single point] |  |
| O=C(NCc1ccccc1)c1ccc(CN2CCOCC2)cc1 | -7.54% | 16.4 µM [falling, single point] |  |
| CCCOc1ccc(S(=O)(=O)n2cc(Br)c(=O)[nH]c2=O)cc1 | 2.39% | 0.58 µM [falling, partial curve, poor fit] | 2.31 µM [falling, partial curve, poor fit] |
| Cc1ccc(C(=O)Nc2ccc(N3CCCC3)cc2)c(C)c1 | 12.6% | 4.61 µM [rising, single point] |  |
| CC(=O)c1ccc(N2CCN(C(=O)c3ccc4c(c3)OCO4)CC2)cc1 |  | 3.98 µM [rising, full curve] |  |
| Cc1cc(Cl)ccc1OCC(=O)NC(=S)Nc1ccccc1N1CCOCC1 |  | 2.91 µM [rising, single point] |  |

In a second layout: entries from further up
Compound	cell number change	AC50 [1]	AC50 [2]
COc1cccc(-c2nnc(NC(=O)c3ccc(S(=O)(=O)N4CCOCC4)cc3)o2)c1	-4.32%	2.59 µM [rising, full curve, poor fit]	
CCOC(=O)c1[nH]c(C)c(C(=O)OCC(=O)N(Cc2ccccc2)C(C)C)c1C	2.82%	29.1 µM [falling, single point]	
CCCCn1c(N)c(N(CC(C)C)C(=O)C2=COCCO2)c(=O)[nH]c1=O	-0.58%	1.84 µM [falling, single point]	
COC(=O)C1=C(C)N(CCc2c[nH]c3ccccc23)C(=O)/C1=C\N(C)C		1.46 µM [rising, full curve, poor fit]	
O=C(Nc1ccc(-n2ccc(C(F)(F)F)n2)cc1)c1cccs1	-14.9%	29.1 µM [falling, single point]	
O=C(NCc1ccccc1)c1ccc(CN2CCOCC2)cc1	-7.54%	16.4 µM [falling, single point]	

(cont.)

| Compound | cell number change | AC50 [1] | AC50 [2] |
| --- | --- | --- | --- |
| CC(C)(C)C(=O)/C(=C/c1ccc(Cl)cc1)n1cncn1 | -28.2% |  |  |
| COC(=O)/C=C1/SC(=Nc2ccc(C)cc2C)NC1=O | 15.8% | 20.6 µM [rising, single point] |  |
| CCOCCOC(=O)c1[nH]c2c(c1C)C(=O)CC(c1ccc(N(C)C)cc1)C2 (centres undefined) | -1.73% | 18.4 µM [falling, single point] |  |
| Cc1ccc(CNC(=O)c2cc(-c3cc(C)cc(C)c3O)n[nH]2)cc1 | -29.8% | 29.1 µM [falling, single point] |  |
| COc1cccc(-n2c(C)nc3c(cnn3-c3ccc(Cl)cc3)c2=O)c1 |  | 3.26 µM [rising, partial curve] | 3.66 µM [rising, partial curve] |
| CN(C#N)c1nccc(-c2cccs2)n1 | 9.26% | 5.17 µM [falling, single point] | 3.26 µM [falling, single point] |
| CCc1ccc(OCC2c3cc(OC)c(OC)cc3CCN2C(=S)NC)cc1 (centres undefined) | 12.6% |  |  |
| COC(=O)C(Cc1c[nH]c2ccccc12)NC(=O)C1CC1 (centres undefined) | -8.4% |  |  |
| Cc1nn(C)c(C)c1/C=C(/C(=O)C(C)(C)C)n1cncn1 | 41.6% |  | 5.17 µM [rising, full curve, poor fit] |
| CC(C)(C)c1ccc(-c2n[nH]c(=S)n2/N=C/c2ccncc2)cc1 | -56.8% |  | 29.1 µM [falling, single point] |
| CC(=O)OCC(=O)NCc1ccc2c(c1)OCO2 | 12.8% | 6.51 µM [falling, single point] |  |
| Cc1cnc(NC(=O)c2ccc(F)c(S(=O)(=O)N3CCOCC3)c2)s1 | -8.69% | 3.66 µM [rising, partial curve, poor fit] |  |
| CCN(CC(=O)NCc1ccc(F)cc1)CC(=O)NC1CCCC1 | -5.71% |  |  |
| Cc1c(NS(=O)(=O)c2ccc(N)cc2)c(=O)n(-c2ccccc2)n1C | 40.5% |  |  |
| CN1CCC(=O)N([C@H](CC#N)c2ccccc2)CC1 | 16.8% |  |  |
| c1ccc(-[n+]2nc(Nc3cccc4ccccc34)sc2-c2c3ccccc3cc3ccccc23)cc1 | -87.3% | 14.6 µM [falling, partial curve, poor fit] | 5.17 µM [falling, full curve] |
| COC(=O)C1CCCN1S(=O)(=O)c1ccccc1NC(=O)c1cc(OC)c(OC)c(OC)c1 (centres undefined) | -25.6% | 20.6 µM [falling, single point] |  |
| CCCCNS(=O)(=O)c1ccc(OC)c2ncccc12 |  |  | 2.59 µM [rising, single point] |
| COCCNc1nc(C(C)(C)C)nc2c1nnn2Cc1ccccc1Cl |  | 2.91 µM [rising, partial curve] |  |
| Cc1oc2ccc(Br)cc2c(=O)c1-c1nn[nH]n1 | 22.2% | 14.6 µM [rising, partial curve] |  |
| OC1(c2cccc(C(F)(F)F)c2)CCNCC1 | 74.5% |  | 5.8 µM [falling, partial curve] |
| NC(=O)c1ccccc1NC(=O)CC12CC3CC(CC(Br)(C3)C1)C2 |  | 0.82 µM [falling, full curve] |  |

| Compound | cell number change | AC50 [1] | AC50 [2] |
| --- | --- | --- | --- |
| CCn1c(=O)c(C(C)=O)nc2ccccc21 | 69% | 7.31 µM [rising, partial curve, poor fit] | 29.1 µM [rising, single point] |
| CCOc1ccccc1NC(=O)CSc1nnnn1-c1ccccc1 |  | 6.51 µM [rising, partial curve] | 0.651 µM [rising, single point] |
| CC(c1ccccc1)N1CCn2c(nc3cc(NC(=O)c4cccs4)ccc32)C1 (centres undefined) | 20.7% | 13 µM [rising, partial curve] |  |
| COC(=O)c1[nH]c2ccc(F)cc2c1NC(=O)Nc1ccc(OC)cc1 | -16.4% | 29.1 µM [falling, single point] |  |
| CCCCN1CCN=C1Nc1ccccc1 | -0.599% | 16.4 µM [rising, partial curve] |  |
| COc1ccc(-c2noc(CN(C(=O)c3ccoc3C)C(C)C)n2)cc1 | 9.57% |  |  |
| COc1cccc(-n2c(=O)c3sccc3n(CC(=O)NC3CCCC3)c2=O)c1 | 10.1% | 0.146 µM [rising, single point] |  |
| Brc1cccc(-c2nnc3sc(CNC4CCCC4)cn23)c1 | 11.3% |  |  |
| Cc1c(C(=O)O)oc2ccc(S(=O)(=O)NCc3ccccc3)cc12 | 1.65% | 0.461 µM [rising, single point] |  |
| Cn1nnnc1Sc1ncnc2scc(-c3ccc(C#N)cc3)c12 | -14.9% | 0.00461 µM [falling, full curve, poor fit] |  |
| O=C(CN1C(=O)NC2(CCCCC2)C1=O)N1CCN(c2ncccn2)CC1 | -4.84% | 0.92 µM [rising, full curve, poor fit] |  |
| CCOC(=O)CN(C(=O)CN1CCOCC1)c1ccc(Br)cc1 | 1.83% | 8.2 µM [rising, partial curve] |  |
| COc1ccc(C)cc1NC(=O)C(c1ccccc1)N1CCNC(=O)C1 (centres undefined) | 23.4% | 0.00461 µM [rising, full curve, poor fit] |  |
| CCOc1ccccc1CNC(=O)C1CCN(c2nn3c(=O)cc(C)nc3s2)CC1 | -11.2% | 6.51 µM [falling, single point] |  |
| Cc1ccc(C(=O)NCc2ccccn2)cc1NC1=NC2CS(=O)(=O)CC2S1 (centres undefined) | 37.8% |  |  |
| CCc1nnc(NS(=O)(=O)c2ccc(NC(=S)NC(=O)c3ccc(Br)cc3)cc2)s1 | 5.99% |  | 6.51 µM [rising, single point] |
| COc1ccccc1CNC(=O)c1cc2c(s1)CS(=O)(=O)C2 | -1.39% | 1.16 µM [falling, full curve] | 0.651 µM [falling, full curve, poor fit] |
| O=C(c1ccccc1)N1CCN(CC#CC2(O)CCCCC2)CC1 | 2.61% |  | 6.51 µM [rising, single point] |
| CC(=O)Nc1ccc(NC(=O)C2CCCCN2S(=O)(=O)c2ccc(C(C)(C)C)cc2)cc1 (centres undefined) | 10.8% | 11.6 µM [falling, single point] |  |
| COc1ccccc1-c1c(C)nn2c(N3CCC(C)CC3)cc(C)nc12 | 10% |  |  |
| C/C(=N/NS(=O)(=O)c1ccc(C)cc1)c1c[nH]c2ccccc12 | 0.495% | 6.51 µM [rising, single point] |  |
